Results on 2 substances are retold here after article PMC6385231, “Activity-Regulated Cytoskeleton-Associated Protein (Arc/Arg3.1) is Transiently Expressed after Heat Shock Stress and Suppresses Heat Shock Factor 1” (Scientific Reports, 2019).

Chains of the proteins cited; added tags and fusions are not shown.
UniProt P15311: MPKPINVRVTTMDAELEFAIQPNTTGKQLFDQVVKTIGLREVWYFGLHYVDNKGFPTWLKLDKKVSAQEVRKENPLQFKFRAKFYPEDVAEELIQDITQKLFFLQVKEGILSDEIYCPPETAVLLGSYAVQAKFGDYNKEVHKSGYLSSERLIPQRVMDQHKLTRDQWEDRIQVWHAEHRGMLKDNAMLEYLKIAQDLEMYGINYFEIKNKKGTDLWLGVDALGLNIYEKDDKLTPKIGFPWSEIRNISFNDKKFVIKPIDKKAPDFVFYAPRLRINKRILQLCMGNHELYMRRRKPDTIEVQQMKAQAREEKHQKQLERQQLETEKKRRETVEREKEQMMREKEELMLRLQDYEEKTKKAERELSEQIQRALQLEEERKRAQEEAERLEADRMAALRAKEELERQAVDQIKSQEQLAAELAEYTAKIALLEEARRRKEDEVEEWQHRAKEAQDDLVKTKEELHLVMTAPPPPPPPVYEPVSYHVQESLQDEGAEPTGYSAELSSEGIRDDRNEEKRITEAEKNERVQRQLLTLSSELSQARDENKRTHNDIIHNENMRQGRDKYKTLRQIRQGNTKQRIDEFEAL
UniProt Q00613: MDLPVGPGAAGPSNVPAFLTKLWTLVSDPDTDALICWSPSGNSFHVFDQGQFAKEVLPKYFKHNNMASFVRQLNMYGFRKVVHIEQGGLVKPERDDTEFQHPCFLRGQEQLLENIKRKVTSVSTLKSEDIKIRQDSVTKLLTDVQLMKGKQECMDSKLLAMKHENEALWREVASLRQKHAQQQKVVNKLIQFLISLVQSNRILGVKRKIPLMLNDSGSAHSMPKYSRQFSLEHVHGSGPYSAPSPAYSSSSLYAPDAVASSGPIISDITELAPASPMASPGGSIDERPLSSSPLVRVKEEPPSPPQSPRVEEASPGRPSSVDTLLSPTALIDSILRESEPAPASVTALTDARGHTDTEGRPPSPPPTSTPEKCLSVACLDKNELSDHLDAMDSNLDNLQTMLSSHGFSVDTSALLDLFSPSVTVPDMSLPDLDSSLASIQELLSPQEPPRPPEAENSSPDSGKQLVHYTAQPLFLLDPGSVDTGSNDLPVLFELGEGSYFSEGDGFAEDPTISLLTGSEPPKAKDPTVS

The target in experiment [1] is T1, Flag-tagged human Arc/Arg3.1 (activity-regulated cytoskeleton-associated protein) (human) (UniProt Q7LC44).
T1 sequence: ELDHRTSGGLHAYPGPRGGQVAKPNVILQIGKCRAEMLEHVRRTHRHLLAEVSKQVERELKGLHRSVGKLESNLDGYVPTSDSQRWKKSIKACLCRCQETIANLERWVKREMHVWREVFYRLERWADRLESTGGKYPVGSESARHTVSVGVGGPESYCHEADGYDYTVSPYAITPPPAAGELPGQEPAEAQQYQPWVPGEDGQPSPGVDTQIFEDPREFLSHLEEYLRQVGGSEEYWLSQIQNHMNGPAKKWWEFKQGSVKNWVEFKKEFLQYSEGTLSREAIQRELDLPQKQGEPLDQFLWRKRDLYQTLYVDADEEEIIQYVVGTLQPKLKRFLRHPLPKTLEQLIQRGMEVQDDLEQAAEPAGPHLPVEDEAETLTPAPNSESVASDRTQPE
As to the kind of experiment: co-IP; HEK293T cells co-transfected, control cells without heat shock; lysate immunoprecipitated with anti-Flag antibody and protein-G sepharose at 4°C; Western analysis with anti-HA and anti-Flag.

Experiment [2] has as its target T1, Flag-tagged human Arc/Arg3.1 (activity-regulated cytoskeleton-associated protein) (human). The experiment in a line: co-IP; HEK293T cells co-transfected, heat shock at 45°C for 15 min; lysate immunoprecipitated with anti-Flag antibody and protein-G sepharose at 4°C; Western analysis with anti-HA and anti-Flag.

No constants are given. Whether binding was seen depends on the method and setting. In cells and extracts the contact can be indirect. Some binding calls cover weakened binding; strength is not graded here. Where a sequence is shown, tags or fusion partners need not be part of it.

Consider HA-ezrin (from UniProt P15311 1-586), for which the binding entry in experiment [1] and in experiment [2] was “no binding” in each case.

As to “HA-tagged heat shock factor 1 (from UniProt Q00613 1-529)”, the results for the binding entry in experiment [1] and in experiment [2] were “no binding (condition: cells without heat shock)” and “binds”, respectively.
